PubChem BioAssay AID2417 (National Center for Advancing Translational Sciences (NCATS), 2010)
Hit rate of the full screen: of about 140,000 compounds, about 4,300 (3.1%) were called active. The shares of active, inactive and inconclusive entries below differ from those in the screen.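 Rule for the calls: active = readout at or below -70, meaning at least 70% loss of cells showing the perinucleolar compartment, a nuclear body marking cancer cells; inconclusive = readout between -30 and a set limit; inactive = the rest.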

Assay: High Content Assay for Compounds that inhibit the Assembly of the Perinucleolar Compartment;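 note: plate controls were DMSO wells for no effect and camptothecin positive control wells for full effect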
Conditions: PC3M PTB-GFP, PNC prevalence imaging, 16 h; at 10 µM; active compounds read low
How it was run: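 PC3M cells stably expressing PTB-GFP, 750–1000 cells/well, treated 16 h at 37 °C with compound (23 nl of library stock), in duplicate. After paraformaldehyde fixation and Hoechst stain, imaged at 20x; PNC prevalence scored by image analysis.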

| SMILES | activity change (PNC), negative = inhibition |
| --- | --- |
| CC(C)Cc1nnc(NC(=O)CCC(=O)N2CCOCC2)s1 | inconclusive: -40.1% |
| Cc1ccc(C(C)C)cc1OCCCCN1CCCC1 | inconclusive: -44.6% |
| COc1ccc(C2NC(c3ccc(OC)c(OC)c3OC)C(C)C(=O)C2C)c(OC)c1OC (centres undefined) | inconclusive: -37.1% |
| COC(=O)c1ccccc1NC(=O)CN1CCC(NC(=O)c2ccc(C)cc2)CC1 | inconclusive: -74.1% |
| O=C(O)CCCC(=O)Nc1ccc(C(=O)N2CCCCC2)c(Cl)c1 | inconclusive: -51.6% |
| COC(=O)C1=C(CN2CCN(C)CC2)NC(=O)NC1c1cc(C)ccc1C (centres undefined) | inconclusive: -30.2% |
| CCOC(=O)N1C=CC=C[C@@H]2[C@@H](N3C(=O)c4ccccc4C3=O)C(=O)N21 | inconclusive: -31.4% |
| O=C1Nc2ccc(F)cc2C12SCCS2 | inactive: 79.4% |
| CCNC(=S)N/N=C(\C)c1ccc(N2CCOCC2)cc1 | inactive: -18.9% |
| N#CC1=C(SCC(=O)c2ccc(Br)cc2)NC2=C(C(=O)CCC2)C1c1ccco1 (centres undefined) | inactive: 10.7% |
| CC1(C)Oc2nc3ccccc3n2/C1=C\C#N | inconclusive: -52% |
| CNC(=S)N(Cc1ccc2c(c1)OCO2)C1CC(=O)N(c2ccccc2)C1=O (centres undefined) | inconclusive: -47.2% |
| COc1ccccc1N1CCN(CCOc2c(OC)cccc2OC)CC1 | inconclusive: -43.1% |
| Cc1nnc(SCC(=O)NCc2ccc3c(c2)OCO3)[nH]c1=O | inactive: 31.8% |
| CCOc1cc(C#N)c(NC(=O)c2ccco2)cc1OCC | inconclusive: -31% |
| CCCCN(C)C(=O)C1CCC(=O)N(c2cc(OC)c(OC)c(OC)c2)C1c1ccc(OC)cc1 (centres undefined) | active: -100% |
| CC(=O)Nc1cccc(C(=O)N/N=C/c2ccccc2F)c1 | inactive: 36% |
| CCNC(=S)NNC(=O)c1c(Cl)c(C)nn1C | inconclusive: -31.6% |
| Oc1ccc2ccccc2c1/C=N/Nc1ccccc1 | inactive: 62% |
| O=C(COC(=O)c1cnccn1)c1ccc2ccccc2c1 | inactive: -13.5% |
| O=C(c1ccc(-c2ccccc2)cc1)N1CCN(C(=O)c2ccco2)CC1 | inconclusive: -35.9% |
| COc1ccc(C(=O)O/N=C(\C)c2ccccc2)cc1 | inconclusive: -62.6% |
| O=C(CSc1nc2ccccc2o1)Nc1nc(-c2ccccc2)c(-c2ccccc2)s1 | inconclusive: -57.6% |

An excerpt from above in order of length of the SMILES, low to high.

| SMILES | activity change (PNC), negative = inhibition |
| --- | --- |
| Cc1ccc(C(C)C)cc1OCCCCN1CCCC1 | inconclusive: -44.6% |
| CCNC(=S)NNC(=O)c1c(Cl)c(C)nn1C | inconclusive: -31.6% |
| CCNC(=S)N/N=C(\C)c1ccc(N2CCOCC2)cc1 | inactive: -18.9% |
| CC(=O)Nc1cccc(C(=O)N/N=C/c2ccccc2F)c1 | inactive: 36% |

(further entries)

| SMILES | activity change (PNC), negative = inhibition |
| --- | --- |
| O=C(CCSc1nc(-c2ccco2)cc(C(F)(F)F)n1)N1CCCc2ccccc21 | inconclusive: -47.6% |
| O=C(/C=C\c1ccc(-c2ccccc2)o1)c1ccccc1 | inconclusive: -41.2% |
| CCOc1ccc2nc(SCC(=O)N3CCN(C(=O)c4ccco4)CC3)sc2c1 | inactive: -13.1% |
| COc1cc(/C=C(\C#N)c2nc(-c3cc4ccccc4oc3=O)cs2)ccc1O | inconclusive: -32.4% |
| CC1=NN(c2ccccc2)C(=O)/C1=C/c1c(O)n(-c2ccc(F)cc2)[nH]c1=O | inactive: 23% |
| COc1ccc(-c2csc(N3CCN(Cc4ccc5c(c4)OCO5)CC3)n2)cc1 | inconclusive: -32% |
| CC1CCN(c2ccc(C(=O)Nc3ccc4c(c3)OCO4)cc2[N+](=O)[O-])CC1 | inactive: 17.9% |
| COC(=O)c1ccc(/C=C/C(=O)c2cccc(OC)c2)cc1 | inconclusive: -43.8% |
| O=C(Nc1ccc(Br)cc1)C1CCCN1S(=O)(=O)c1cccs1 (centres undefined) | inconclusive: -61.9% |
| CCOC(=O)C1=C(O)/C(=C/c2ccc(-c3ccccc3C(=O)O)o2)SC1=Nc1ccc(OC)cc1 | inactive: 9.28% |
| Cc1ccccc1NC(=O)NCCCN1CCCC1 | inconclusive: -54.7% |
| COc1ccc(NC(=O)C2CCN(S(=O)(=O)c3ccc(OC)c(OC)c3)CC2)c(OC)c1 | active: -121% |
| Cn1c(OCc2cccnc2)nc2c1c(=O)n(Cc1ccccc1)c(=O)n2C | inconclusive: -43.8% |
| CCOC(=O)c1ccc(N(CC(=O)NC2CCCC2)C(=O)CNC(=O)c2ccco2)cc1 | active: -85.5% |
| Cc1ccc(/C=C2/SC(=O)N(CC(=O)N3CCOCC3)C2=O)s1 | inactive: -28.3% |
| O=C1CC(c2ccccc2)Cc2nc3nc(C(F)(F)F)nn3cc21 (centres undefined) | inconclusive: -48.1% |
| Cc1ccc(C(=O)NNC(=O)C2CCN(S(=O)(=O)c3ccc(Cl)cc3)CC2)cc1 | inactive: -21.6% |
| N#CCSc1nc2ccccc2c(=O)n1CCC(=O)NC1CCCCC1 | inconclusive: -56% |
| O=C(O)CCCCCNS(=O)(=O)c1cccc2c1C(=O)c1ccccc1C2=O | inconclusive: -37.9% |
| O=C(CSC1=NC(=O)C(Cc2ccccc2)C(=O)N1)NC1CCCCC1 (centres undefined) | inconclusive: -42.4% |
| Cc1ccc(C)c(N(CC(=O)N/N=C/c2ccc(-c3ccc([N+](=O)[O-])cc3)o2)S(=O)(=O)c2ccccc2)c1 | inconclusive: -34% |
| CN1c2ccccc2-c2nc3ccccc3n2C1c1cccs1 (centres undefined) | inconclusive: -73.8% |
| CCOC(=O)Cn1nnnc1C(CC)N(Cc1cccs1)Cc1cc2cc(C)ccc2[nH]c1=O (centres undefined) | inactive: 56.5% |

| SMILES | activity change (PNC), negative = inhibition |
| --- | --- |
| Cc1ccc(C2Oc3ccccc3C3=C2C(c2cccs2)n2ncnc2N3)cc1 (centres undefined) | inactive: 11.7% |
| O=c1c2ccccc2oc2nc(-c3ccco3)n(CCc3ccccc3)c(=O)c12 | active: -100% |
| Cc1ccccc1N1C(=O)c2ccccc2N2C(=O)c3ccccc3C12 (centres undefined) | inconclusive: -59.7% |
| CCOC(=O)c1c(C)oc2c1c(C=NCc1ccccn1)c(O)c1ccccc12 | inactive: -19% |
| Cc1noc(C)c1CSc1ncnc2ccccc12 | inconclusive: -41.2% |
| O=C1c2cccc([N+](=O)[O-])c2C(=O)N1c1ccccc1 | inconclusive: -60.4% |
| CCCCCn1c(SCC#N)nc2cc(C(=O)NCC3CCCO3)ccc2c1=O (centres undefined) | inconclusive: -50.8% |
| O=C(NCc1ccc(F)cc1)N[C@@H](Cc1ccccc1)C(=O)O | active: -127% |
| O=c1c(Cc2ccc(Cl)cc2)c(O)ccn1Cc1ccccc1 | inconclusive: -51.8% |
| COc1cc(/C=C(/C(=O)c2cccs2)c2nc3ccccc3[nH]2)cc(OC)c1O | inactive: -1.66% |
| O=C(NC1CCCCC1)n1c(=O)oc2ccc(Cl)cc21 | inconclusive: -50.8% |
| O=C(Nc1ccc(Br)cc1Cl)Nn1cnnc1 | inconclusive: -50.7% |
| O=C(c1cccc(OC(F)F)c1)N1CCN(c2ncccn2)CC1 | inconclusive: -42.2% |
| Cc1nn(CC(=O)Nc2ccc3c(c2)nc(CN2CCCC2)n3C)c(=O)c2ccccc12 | active: -100% |
| CCn1cc([N+](=O)[O-])c(C(=O)N2CCOCC2)n1 | inconclusive: -32.9% |
| CCOC(=O)C1=C(C)OC(N)=C(C#N)C1c1cncc(-c2ccc(F)cc2)c1 (centres undefined) | inconclusive: -33.4% |
| Cc1c(CCC(=O)O)c(=O)oc2cc3occ(-c4ccc(F)cc4)c3cc12 | inconclusive: -48% |
| COc1ccc(N(C(=O)c2ccco2)S(=O)(=O)c2ccc(F)cc2)cc1 | inactive: 38.9% |
| CCOc1ccc(NC(=O)CN2CCN(CC(=O)Nc3ccc(F)c(F)c3)CC2)cc1 | inconclusive: -61.9% |
| Cc1cc(Br)cc2c(C(=O)Nc3c(C)n(C)n(-c4ccccc4)c3=O)cc(-c3cccs3)nc12 | inconclusive: -46.5% |
| CCOC(=O)N1CCC(NC(=O)c2cnn3c2NC(c2ccco2)CC3C(F)(F)F)CC1 (centres undefined) | inactive: 9.53% |
| Cc1cc(NS(=O)(=O)c2ccc(NC(=O)CSc3nnc(-c4ccco4)n3N)cc2)nc(C)n1 | inconclusive: -59.6% |
| COc1ccc(Oc2c(C)oc3c(CN(C)C)c(O)ccc3c2=O)cc1 | inconclusive: -67.8% |

| SMILES | activity change (PNC), negative = inhibition |
| --- | --- |
| CCn1c(CCCOc2ccc(Cl)cc2Cl)nnc1SCC(=O)Nc1cccc(F)c1 | inactive: 3.57% |
| CC1=C(C(N)=O)C(c2ccco2)C(C(N)=O)=C(C)N1 | inconclusive: -51.9% |
| CCOC(=O)N1CCN(C(=O)COc2cccc3c2CCN(Cc2cccc(C)c2)C3=O)CC1 | inactive: -9.63% |
| CN(C)/C=C(/C(=O)c1ccc(Cl)cc1)S(=O)(=O)c1ccc(Cl)cc1 | inactive: 37.8% |
| CCCS(=O)(=O)N1CCC(C(=O)NCCCN(CC)c2cccc(C)c2)CC1 | inactive: -16.5% |
| CNS(=O)(=O)c1cccc(C(=O)OCC(=O)Nc2ccccc2OC(F)F)c1 | inconclusive: -79.7% |
| CCOC(=O)c1c(C)nc2ccccc2c1C | inconclusive: -56.7% |
| Cc1ccc(NC(=O)c2snc3ccc(Cl)cc23)cc1C | inconclusive: -77% |
| CCn1ccc2cc(OC)ccc2c1=S | inactive: 17.2% |
| CC(=O)c1cccc(N(C(=O)c2ccco2)C(C(=O)NC2CCCC2)c2ccncc2)c1 (centres undefined) | inactive: 0.107% |
| O=C(c1csc2ccccc12)n1cccn1 | active: -86.7% |
| COc1ccc(NC(=O)c2ccccc2NC(=O)c2ccco2)c(OC)c1 | inconclusive: -34.5% |
| Cc1cc(Nc2ccccc2)n(-c2ccccc2)n1 | inactive: -17.6% |
| COc1ccc(-n2c(SCC(=O)N3CCCCC3)nnc2-c2cccnc2)cc1 | inconclusive: -38.9% |
| CCCC(=O)Oc1ccccc1C1SCc2cc(C)c(C)cc2CS1 | inconclusive: -33% |
| Cc1ccc(C)n1-n1cnc2sc(-c3ccccc3)cc2c1=O | inactive: 4.49% |
| O=c1[nH]c(SCc2n[nH]c(=S)n2-c2ccccc2)nc2sc3c(c12)CCC3 | inactive: 63.8% |
| Cc1ccc(C(=O)N2CCN(c3cc(=O)[nH]nc3-c3ccccc3)CC2)cc1 | inactive: 41.3% |
| O=C(NC1CCC(C(=O)O)CC1)OCc1ccccc1 (centres undefined) | inconclusive: -32.4% |
| CC1=C(C(=O)OC(C)C)C(c2c[nH]c3ccccc23)n2ncnc2N1 (centres undefined) | active: -106% |
